Data on 37 targets can be found in the supplement of paper PMC11006884.

The chains behind the UniProt entries cited, without tags or fusion partners. Where a name states a change or a piece, a line headed by the entry shows the natural chain unless it says otherwise.
UniProt O95881: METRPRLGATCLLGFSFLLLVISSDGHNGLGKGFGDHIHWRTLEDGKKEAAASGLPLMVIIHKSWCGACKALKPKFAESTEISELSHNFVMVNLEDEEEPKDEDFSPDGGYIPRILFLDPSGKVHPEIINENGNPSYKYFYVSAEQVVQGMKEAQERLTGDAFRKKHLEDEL
UniProt O95801: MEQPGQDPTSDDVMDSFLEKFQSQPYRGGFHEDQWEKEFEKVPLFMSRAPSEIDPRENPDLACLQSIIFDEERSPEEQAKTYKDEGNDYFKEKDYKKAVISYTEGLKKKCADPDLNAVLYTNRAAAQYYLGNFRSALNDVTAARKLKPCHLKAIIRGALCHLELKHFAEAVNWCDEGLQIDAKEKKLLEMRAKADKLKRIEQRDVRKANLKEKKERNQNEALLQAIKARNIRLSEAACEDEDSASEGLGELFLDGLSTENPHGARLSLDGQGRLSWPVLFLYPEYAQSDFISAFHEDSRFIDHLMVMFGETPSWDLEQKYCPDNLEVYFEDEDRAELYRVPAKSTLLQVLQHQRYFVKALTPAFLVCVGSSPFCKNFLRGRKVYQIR
UniProt O95602, whole entry, looked up: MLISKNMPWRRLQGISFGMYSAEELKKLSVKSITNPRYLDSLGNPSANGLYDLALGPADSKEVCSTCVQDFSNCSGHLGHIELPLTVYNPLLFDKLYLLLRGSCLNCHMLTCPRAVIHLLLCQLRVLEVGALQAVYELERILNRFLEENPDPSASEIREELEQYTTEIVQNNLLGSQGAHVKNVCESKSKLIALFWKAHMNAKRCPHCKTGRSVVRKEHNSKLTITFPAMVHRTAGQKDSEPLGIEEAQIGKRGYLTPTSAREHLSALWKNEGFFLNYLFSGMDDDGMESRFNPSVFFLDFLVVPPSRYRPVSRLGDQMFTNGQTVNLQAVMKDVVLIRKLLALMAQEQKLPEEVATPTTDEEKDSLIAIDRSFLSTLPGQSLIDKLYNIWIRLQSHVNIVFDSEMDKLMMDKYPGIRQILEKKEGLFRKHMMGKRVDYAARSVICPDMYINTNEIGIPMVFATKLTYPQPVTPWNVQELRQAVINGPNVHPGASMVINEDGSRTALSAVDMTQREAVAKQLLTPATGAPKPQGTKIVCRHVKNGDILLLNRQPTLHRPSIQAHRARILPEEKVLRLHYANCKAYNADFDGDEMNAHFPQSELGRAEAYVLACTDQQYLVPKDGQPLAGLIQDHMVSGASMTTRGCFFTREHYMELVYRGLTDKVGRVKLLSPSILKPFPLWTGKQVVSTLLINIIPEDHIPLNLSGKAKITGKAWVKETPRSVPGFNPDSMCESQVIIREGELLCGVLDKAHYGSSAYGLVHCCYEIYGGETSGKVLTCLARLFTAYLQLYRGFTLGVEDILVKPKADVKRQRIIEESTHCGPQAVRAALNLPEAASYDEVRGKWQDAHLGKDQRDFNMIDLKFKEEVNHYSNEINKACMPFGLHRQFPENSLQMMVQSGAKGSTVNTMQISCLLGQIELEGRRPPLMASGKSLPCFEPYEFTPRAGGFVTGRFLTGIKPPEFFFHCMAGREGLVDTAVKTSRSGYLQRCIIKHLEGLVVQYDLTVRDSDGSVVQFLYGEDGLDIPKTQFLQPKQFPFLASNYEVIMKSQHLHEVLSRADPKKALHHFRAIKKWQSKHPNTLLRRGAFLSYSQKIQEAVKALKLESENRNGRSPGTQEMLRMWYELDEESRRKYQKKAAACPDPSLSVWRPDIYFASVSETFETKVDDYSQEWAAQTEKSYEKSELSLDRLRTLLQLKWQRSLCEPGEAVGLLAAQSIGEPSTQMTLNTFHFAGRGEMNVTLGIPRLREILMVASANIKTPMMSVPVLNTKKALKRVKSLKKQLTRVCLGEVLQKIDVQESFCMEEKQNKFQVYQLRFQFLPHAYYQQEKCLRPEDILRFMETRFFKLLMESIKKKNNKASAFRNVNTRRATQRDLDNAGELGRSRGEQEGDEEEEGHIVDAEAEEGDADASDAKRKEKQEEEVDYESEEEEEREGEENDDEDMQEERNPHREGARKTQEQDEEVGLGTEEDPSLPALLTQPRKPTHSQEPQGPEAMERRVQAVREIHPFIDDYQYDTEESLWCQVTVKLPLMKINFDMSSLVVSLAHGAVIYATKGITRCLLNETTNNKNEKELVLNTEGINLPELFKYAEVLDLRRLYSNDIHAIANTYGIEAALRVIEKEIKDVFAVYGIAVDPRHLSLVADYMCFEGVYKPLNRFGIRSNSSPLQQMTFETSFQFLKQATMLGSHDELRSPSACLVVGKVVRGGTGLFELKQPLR
UniProt P06748, whole entry, looked up: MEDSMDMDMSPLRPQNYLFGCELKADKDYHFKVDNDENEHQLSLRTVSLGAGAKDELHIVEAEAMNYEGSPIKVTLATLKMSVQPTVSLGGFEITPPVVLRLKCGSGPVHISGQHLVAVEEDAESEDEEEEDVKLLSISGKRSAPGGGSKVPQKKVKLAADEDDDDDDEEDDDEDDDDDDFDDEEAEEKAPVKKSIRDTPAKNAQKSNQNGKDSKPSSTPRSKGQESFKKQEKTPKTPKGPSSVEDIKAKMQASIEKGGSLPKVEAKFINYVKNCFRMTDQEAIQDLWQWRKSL
UniProt P06493, whole entry, looked up: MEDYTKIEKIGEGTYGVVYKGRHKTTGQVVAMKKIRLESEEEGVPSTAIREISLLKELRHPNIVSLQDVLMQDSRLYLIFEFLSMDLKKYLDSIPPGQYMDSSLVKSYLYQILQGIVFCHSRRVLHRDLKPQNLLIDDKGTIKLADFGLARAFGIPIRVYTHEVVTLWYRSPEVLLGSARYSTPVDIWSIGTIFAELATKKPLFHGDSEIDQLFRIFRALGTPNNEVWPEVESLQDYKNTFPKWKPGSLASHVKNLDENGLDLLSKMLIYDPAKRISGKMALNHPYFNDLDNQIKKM
UniProt O95347, whole entry, looked up: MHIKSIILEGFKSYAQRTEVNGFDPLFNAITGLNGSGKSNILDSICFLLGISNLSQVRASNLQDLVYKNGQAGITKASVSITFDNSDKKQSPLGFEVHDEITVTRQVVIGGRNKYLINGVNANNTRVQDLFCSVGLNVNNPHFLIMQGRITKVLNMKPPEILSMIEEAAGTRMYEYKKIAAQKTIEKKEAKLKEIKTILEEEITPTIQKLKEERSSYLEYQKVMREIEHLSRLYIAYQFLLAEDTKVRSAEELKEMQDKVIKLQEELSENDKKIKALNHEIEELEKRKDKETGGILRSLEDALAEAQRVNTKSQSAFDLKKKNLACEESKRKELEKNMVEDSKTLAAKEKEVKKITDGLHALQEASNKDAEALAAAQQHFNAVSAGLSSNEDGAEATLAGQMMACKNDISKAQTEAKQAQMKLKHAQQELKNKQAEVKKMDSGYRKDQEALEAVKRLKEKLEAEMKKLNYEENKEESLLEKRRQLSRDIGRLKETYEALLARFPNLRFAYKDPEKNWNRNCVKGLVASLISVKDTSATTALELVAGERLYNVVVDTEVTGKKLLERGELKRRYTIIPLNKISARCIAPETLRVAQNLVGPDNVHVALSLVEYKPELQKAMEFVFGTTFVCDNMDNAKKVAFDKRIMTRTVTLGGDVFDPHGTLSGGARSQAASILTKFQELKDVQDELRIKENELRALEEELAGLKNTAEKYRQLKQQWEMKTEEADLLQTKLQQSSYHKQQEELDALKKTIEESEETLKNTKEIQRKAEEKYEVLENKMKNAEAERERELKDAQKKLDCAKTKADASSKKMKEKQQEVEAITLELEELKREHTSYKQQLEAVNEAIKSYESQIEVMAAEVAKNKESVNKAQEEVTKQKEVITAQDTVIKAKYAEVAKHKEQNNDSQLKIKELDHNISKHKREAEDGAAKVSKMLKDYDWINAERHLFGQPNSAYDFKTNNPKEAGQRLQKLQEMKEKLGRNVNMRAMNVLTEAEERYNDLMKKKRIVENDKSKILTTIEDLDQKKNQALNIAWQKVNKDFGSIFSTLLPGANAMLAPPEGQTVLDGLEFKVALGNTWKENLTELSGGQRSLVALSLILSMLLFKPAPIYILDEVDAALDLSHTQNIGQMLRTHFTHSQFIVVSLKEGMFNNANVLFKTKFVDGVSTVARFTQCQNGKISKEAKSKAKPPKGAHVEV
UniProt O95999: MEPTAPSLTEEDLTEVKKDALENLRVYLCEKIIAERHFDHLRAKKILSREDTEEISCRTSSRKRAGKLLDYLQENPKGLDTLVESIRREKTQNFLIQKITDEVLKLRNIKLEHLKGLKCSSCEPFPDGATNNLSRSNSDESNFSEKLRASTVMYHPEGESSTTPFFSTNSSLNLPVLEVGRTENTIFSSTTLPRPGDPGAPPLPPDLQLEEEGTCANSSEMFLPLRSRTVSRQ
UniProt P00558: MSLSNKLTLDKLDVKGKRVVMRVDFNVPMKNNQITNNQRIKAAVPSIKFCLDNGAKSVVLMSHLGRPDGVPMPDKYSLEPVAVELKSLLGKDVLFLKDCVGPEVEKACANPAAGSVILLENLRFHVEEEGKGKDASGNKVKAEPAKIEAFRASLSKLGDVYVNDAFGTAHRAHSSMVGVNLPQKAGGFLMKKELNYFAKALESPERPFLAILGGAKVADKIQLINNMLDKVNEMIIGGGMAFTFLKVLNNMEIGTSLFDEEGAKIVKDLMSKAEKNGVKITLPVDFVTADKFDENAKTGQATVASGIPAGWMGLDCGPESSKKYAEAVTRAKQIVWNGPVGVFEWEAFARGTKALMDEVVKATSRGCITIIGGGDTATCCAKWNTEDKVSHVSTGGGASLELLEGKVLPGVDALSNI
UniProt O95816: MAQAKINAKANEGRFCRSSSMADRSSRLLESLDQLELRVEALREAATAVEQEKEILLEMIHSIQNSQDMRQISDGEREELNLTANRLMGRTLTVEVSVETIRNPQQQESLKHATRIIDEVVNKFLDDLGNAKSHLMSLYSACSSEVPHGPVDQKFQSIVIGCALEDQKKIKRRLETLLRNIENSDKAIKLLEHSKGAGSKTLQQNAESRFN
UniProt O95639, whole entry, looked up: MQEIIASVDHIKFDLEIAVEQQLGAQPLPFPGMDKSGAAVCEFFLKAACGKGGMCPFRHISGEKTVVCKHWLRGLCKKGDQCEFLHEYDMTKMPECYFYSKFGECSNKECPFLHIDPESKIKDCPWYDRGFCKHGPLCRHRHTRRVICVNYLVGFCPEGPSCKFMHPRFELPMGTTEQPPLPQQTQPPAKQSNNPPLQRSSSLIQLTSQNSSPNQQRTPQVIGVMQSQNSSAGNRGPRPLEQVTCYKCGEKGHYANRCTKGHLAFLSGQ
UniProt O95551: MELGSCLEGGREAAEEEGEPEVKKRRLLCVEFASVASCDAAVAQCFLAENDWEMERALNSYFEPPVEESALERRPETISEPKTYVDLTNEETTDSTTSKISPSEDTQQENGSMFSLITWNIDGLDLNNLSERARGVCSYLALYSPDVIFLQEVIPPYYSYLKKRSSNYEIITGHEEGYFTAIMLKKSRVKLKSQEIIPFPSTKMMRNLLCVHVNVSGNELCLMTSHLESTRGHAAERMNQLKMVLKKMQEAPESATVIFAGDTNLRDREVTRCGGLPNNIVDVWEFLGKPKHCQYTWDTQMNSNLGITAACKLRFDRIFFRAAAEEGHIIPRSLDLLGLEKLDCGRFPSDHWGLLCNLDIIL
UniProt O94927: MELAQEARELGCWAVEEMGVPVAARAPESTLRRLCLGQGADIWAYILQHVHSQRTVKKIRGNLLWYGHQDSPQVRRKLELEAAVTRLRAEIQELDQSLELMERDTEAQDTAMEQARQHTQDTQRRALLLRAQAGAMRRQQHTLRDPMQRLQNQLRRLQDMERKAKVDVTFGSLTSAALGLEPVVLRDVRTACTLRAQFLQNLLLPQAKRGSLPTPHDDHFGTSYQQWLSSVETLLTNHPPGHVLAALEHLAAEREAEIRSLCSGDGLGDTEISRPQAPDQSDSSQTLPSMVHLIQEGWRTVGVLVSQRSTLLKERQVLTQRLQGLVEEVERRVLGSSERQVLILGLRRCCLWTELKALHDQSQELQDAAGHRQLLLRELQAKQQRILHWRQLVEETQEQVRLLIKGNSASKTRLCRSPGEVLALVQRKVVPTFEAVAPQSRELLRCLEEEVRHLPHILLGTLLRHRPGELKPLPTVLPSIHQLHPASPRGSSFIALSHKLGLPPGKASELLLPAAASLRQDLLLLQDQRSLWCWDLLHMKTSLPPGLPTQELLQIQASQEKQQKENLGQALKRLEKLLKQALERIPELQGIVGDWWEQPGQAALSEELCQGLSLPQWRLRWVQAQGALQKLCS
UniProt P04637, whole entry, looked up: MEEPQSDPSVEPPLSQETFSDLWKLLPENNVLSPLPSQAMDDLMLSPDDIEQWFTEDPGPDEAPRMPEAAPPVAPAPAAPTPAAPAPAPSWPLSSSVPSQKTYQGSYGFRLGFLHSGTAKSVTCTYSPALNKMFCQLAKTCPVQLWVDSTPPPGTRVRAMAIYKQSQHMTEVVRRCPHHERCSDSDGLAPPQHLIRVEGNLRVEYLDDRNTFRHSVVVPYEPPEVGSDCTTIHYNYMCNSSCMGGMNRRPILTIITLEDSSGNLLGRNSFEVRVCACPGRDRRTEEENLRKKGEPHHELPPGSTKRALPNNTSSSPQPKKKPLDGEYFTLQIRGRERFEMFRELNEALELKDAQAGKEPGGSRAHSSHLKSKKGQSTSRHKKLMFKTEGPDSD

The list shows a part of the results, in another mix than the full data.

Compound in this experiment: COC(=O)C#Cc1ccccc1 [methyl 3-phenylpropiolate]
The experiment is described as follows: log2 ratio of iodoacetamide-alkyne labeling of the cysteine site, DMSO over compound (competition); higher = stronger covalent engagement of the cysteine by the compound, active = 1 or more. Particulars: 500 µM; treatment time 1 h; system: HEK293T cell lysate. Summed up:
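Reporter intensities give each cysteine's log2 competition ratio as the mean of control channels over the mean of compound channels. The samples were HEK293T lysate (2 mg/mL) given vehicle or electrophile (500 µM, 1 h, ambient temperature), then iodoacetamide alkyne (1 h), followed by click coupling to sCIP-TMT reagents, pooling, trypsin digestion overnight at 37 °C, streptavidin enrichment, acid elution, Orbitrap Eclipse LC-MS/MS with FAIMS and FragPipe quantification. Duplicate channels and three replicates were run, and cysteines quantified in only one replicate were discarded.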
For the target TXNDC12 C66 (UniProt O95881), the “log2 ratio of iodoacetamide-alkyne labeling” value (“log2 ratio” below) is inactive: 0.593.
Then LDHA C293 (UniProt P00338), with inactive: -0.149; and UniProt O94826_C544, with inactive: 0.198.
Then UniProt O94901_C63, with inactive: 0.378.
On to AIFM1 C256 (UniProt O95831), for which the “log2 ratio” value was inactive: -0.283.
The figure for SBF1 C896 (UniProt O95248) is inactive: 0.141; for TTC4 C110 (UniProt O95801) it is inactive: 0.0895; for POLR1A C822 (UniProt O95602) it is inactive: -0.0124.
The figure for STAMBP C264 (UniProt O95630) is inactive: 0.0695.
Then GSR C102 (UniProt P00390), with inactive: 0.154; and OAT C306 (UniProt P04181), with inactive: 0.00204.
In the case of NPM1 C275 (UniProt P06748), the “log2 ratio” value was inactive: -0.0338.
For the target UniProt O95163_C23, the “log2 ratio” value is inactive: 0.013.
In the case of GLUD1 C327 (UniProt P00367), the “log2 ratio” value was inactive: 0.248.
As to GOT2 C106 (UniProt P00505), the “log2 ratio” value is inactive: 0.421.
The figure for UniProt P06493_C119 is inactive: 0.0033.
The figure for USP19 C833 (UniProt O94966) is inactive: 0.0294; for PCNT C2150 (UniProt O95613) it is inactive: 0.075.
Then PGLS C237 (UniProt O95336), with inactive: 0.156; and SMC2 C585 (UniProt O95347), with inactive: 0.258; and BCL10 C119 (UniProt O95999), with inactive: 0.992.
Turning to EPRS C1497 (UniProt P07814), the “log2 ratio” value is inactive: 0.295.
Then GSR C107 (UniProt P00390), with inactive: 0.154; and PGK1 C316 (UniProt P00558), with inactive: 0.0644; and GLS C266 (UniProt O94925), with inactive: -0.0523.
In the case of BAG2 C142 (UniProt O95816), the “log2 ratio” value was inactive: 0.207.
On to GLS C203 (UniProt O94925), for which the “log2 ratio” value was inactive: 0.391.
The figure for CPSF4 C41 (UniProt O95639) is inactive: 0.426.
UniProt O95551_C6: the “log2 ratio” value is inactive: 0.501.
The figure for UniProt O94927_C12 is inactive: 0.265; for UniProt O95758_C68 it is inactive: 0.0841; for UBE4B C494 (UniProt O95155) it is inactive: 0.16.
The figure for EPRS C1076 (UniProt P07814) is inactive: 0.108; for TP53 C176 (UniProt P04637) it is inactive: 0.231; for PYGL C581 (UniProt P06737) it is inactive: -0.0352.
Then UniProt P04439_C363, with inactive: 0.336; and AP2A1 C970 (UniProt O95782), with inactive: 0.411.
